Measured values as given in PubChem BioAssay AID743245 (National Center for Advancing Translational Sciences (NCATS), 2014).
This list was built around the results that the source calls inconclusive (neither active nor inactive); the mix of calls is not that of the screen. Potencies of inconclusive entries are doubtful fits and often do not repeat. Active and inactive are the calls of the source. Calls come from the whole dose curve; as a rule, active = well fitted inhibition curve with a large enough effect; inconclusive = small, poorly fitted or top-dose-only effect; inactive = flat fitted curve, though single readings scatter.

Amino acid sequences for entries named in this document (tags omitted). A change or cut given only in a name is not applied to a line headed by its entry.
UniProt P80244: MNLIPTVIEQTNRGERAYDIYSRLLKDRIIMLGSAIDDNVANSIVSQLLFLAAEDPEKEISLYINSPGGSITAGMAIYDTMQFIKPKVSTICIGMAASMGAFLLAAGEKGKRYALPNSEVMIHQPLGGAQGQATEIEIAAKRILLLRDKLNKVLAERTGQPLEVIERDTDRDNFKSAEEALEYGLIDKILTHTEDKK

Target: ATP-dependent Clp protease proteolytic subunit (Bacillus subtilis (strain 168)) (UniProt P80244)
Test: qHTS Assay for Activators of ClpP: Hit Validation of Inhibitors; note: nearly all actives have a fitted effect of over 70% in size
Conditions: purified B. subtilis ClpP, FRET-FV substrate cleavage, 20 min
Text: The Clp protease proteolytic subunit (ClpP) is the core unit of the Clp complex belonging to the peptidase family S14 that hydrolyzes protein into small peptides in the presence of ATP and magnesium. It is ubiquitously expressed and is the major protease in bacteria. […] Unlike common antibiotics that simply interfere with the essential enzyme activity, ADEP binding activates the ClpP core in the absence of the regulatory Clp-ATPases leading to uncontrolled proteolysis and eventually cell death. Activators binding to the docking site on ClpP can also block formation of the ClpXP and ClpA/C-P holoenzyme complexes interfering with the normal biological functions of ClpP and thus have the potential to become new anti-microbials. To identify activators of ClpP, a FRET based quenching reversal assay was developed using a purified B. subtilis ClpP and a decapeptide substrate (FRET-FV). The FRET-FV is tagged with a fluorescent molecule amino benzoic acid (donor) at the N-terminus and a nitrotyrosine quencher (acceptor) at the C-terminus. FRET-FV cleaves upon activation of ClpP with ADEP treatement and reverses the quenching effect of the nitrotyrosine causing an increase in fluorescence emission signal at 430nm. This assay was used to screen the Molecular Libraries Small Molecule Repository (MLSMR). NIH Molecular Libraries Probe Production Centers Network [MLPCN] NIH Chemical Genomics Center [NCGC] MLPCN Grant: MH095569 Assay Submitter (PI): Michael Maurizi, National Cancer Institute
Two and a half microL/well of purified enzyme solution (final concentrations 10 microg/mL B. subtilis ClpP in 100 mM Tris/HCl pH8, 100 mM KCl, 0.05% low protease BSA, 2.5% glycerol, 0.01% Tween-20 buffer) was dispensed into 1536-well assay plates (Greiner, black solid, medium-binding plates) with Aurora Discovery BioRAPTR Flying Reagent Dispenser (FRD, Beckton-Dickenson). Compound solution (23 nL) was transferred to the assay plate using Kalypsys pin tool equipped with a 1536-pin tool. One and a half microL/well substrate solution (final concentrations 3 microM FRET-FV substrate in 100 mM Tris/HCl pH8, 100 mM KCl, 0.05% low protease BSA, 2.5% glycerol, 0.01% Tween-20 buffer) was then added for a total of 4 microL final reaction volume. FRET signals at time 0 and after 20 min room temperature incubation were obtained using the PerkinElmer Envision plate reader with 320nm excitation and 430nm emission filters. Delta FRET value (Time 20 - Time 0) was calculated and normalized to the delta FRET value of positive control ADEP (5.8 microM final concentration) and negative control DMSO and no enzyme wells.

SMILES	Potency
CCCCCn1c(N)c(C(=O)NCCN2CCOCC2)c2nc3ccccc3nc21	active: 24.3 µM
CNc1ccc2oc(C[C@H]3O[C@@]4(CC[C@H]3C)O[C@H]([C@H](C)C(=O)c3ccc[nH]3)[C@H](C)C[C@H]4C)nc2c1C(=O)O	active: 27.3 µM
Nc1c(C(=O)OC2CCCCC2)c2nc3ccccc3nc2n1CC1CCCO1 (stereo not given)	inconclusive: 4.85 µM [inhibitor, partial curve]
CNC(=O)Oc1ccc(-c2cn3cc(Cl)ccc3n2)cc1	inconclusive: 19.3 µM [inhibitor, partial curve]
Cc1ccc2c(c1)cc(C(=O)Nc1ccccc1C)n2C	inconclusive: 27.3 µM [inhibitor, partial curve]
